## Primary screen of a compound library

Mtb growth Cornell: 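Whole-cell assay for inhibitors of Mycobacterium tuberculosis growth, labelled Cornell in the record; the read-out is not stated. The concentration is filed as 10 mM, unlikely as a test dose, so the dose is not known. The record gives no direction; compounds strong in two other growth screens of this library score well above the rest, so higher reads as stronger inhibition. About 53,000 compounds were tested under these conditions; 1.7% (about 900) showed 50% or more at least once.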
Mtb heat-shock: 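Assay on Mycobacterium tuberculosis, filed only as a heat shock assay from Cornell; the read-out is not stated. The concentration is filed as 10 mM, unlikely as a test dose, so the dose is not known. Direction is inferred from retests: higher values go with stronger inhibition. Size under these conditions: about 69,000 compounds, about 930 of them at 50% or above in at least one test.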

Results are given as percent effect.
How 0% and 100% were set is not recorded. Most values in the screen are low, and negative values occur.
The compounds are a random part of those screened.
A dash means the value is not listed here; it may have been measured.

| compound | Mtb growth Cornell | Mtb heat-shock |
|---|---|---|
| `Cc1nc(C)n(C2CCCN(C(=O)CCCc3ccccn3)C2)n1` (stereo not drawn) | -1.27 | -8.184 |
| `CN(C)C(CNCc1nc(-c2ccsc2)no1)c1cccc(F)c1` (stereo not drawn) | - | 16.72 |
| `Cc1cc(CN(C)C(=O)CN2CCCC2=O)no1` | 8.375 | 1.585 |
| `O=C(O)C(F)(F)F.[H][C@@]12OCCN(S(=O)(=O)C3CC3)[C@@]1([H])CC[C@@H]2Oc1cccnc1` | -13.36 | -37.56 |
| `Cc1[nH]c2c(F)cccc2c1CC(=O)NC1CCCCNC1=O` (stereo not drawn) | - | -6.462 |
| `O=C(NCCc1nnc[nH]1)Nc1cccc(SC(F)F)c1` | 36.65 | 8.164 |
| `O=C(O)C(F)(F)F.[H][C@@]12CN(C(=O)c3ccsc3)C[C@]1([H])C(=O)N(Cc1cccc(C)n1)C2` | 15.46 | -36.99 |
| `CCN(CC)CCn1cc(NC(=O)c2ccccc2OC)cn1` | 5.597 | -20.14 |
| `CN(C)Cc1ccc(C2CCCCN2C(=O)c2cccnn2)cc1` (stereo not drawn) | - | 1.813 |
| `O=C(NCC1CCCO1)c1ccc(S(=O)(=O)NCCc2cn[nH]c2)cc1` (stereo not drawn) | -12.52 | 11.46 |
| `Cn1cnnc1C1CCCN(c2nc3ccccc3o2)C1` (stereo not drawn) | - | 19.78 |
| `Cc1nc(C)n(CC2CN(CC(=O)NC3CCCC3)CCO2)n1` (stereo not drawn) | -1.047 | -20.38 |
| `Cc1cccc(N2CCOCC3(C2)CN(c2ccoc2)C(=O)CO3)n1.O=C(O)C(F)(F)F` (stereo not drawn) | -11.59 | 36.14 |
| `CCCn1nnnc1COc1ccc(C(=O)OC)cc1OC` | 7.789 | 9.239 |
| `CCN(CC)C(=O)c1ccn(COc2ccc(F)cc2)n1` | - | 9.277 |
| `COCCNC(=O)NCC(C)c1ccccc1OC` (stereo not drawn) | - | 0.5803 |
| `CCOC(=O)C1CCN(Cc2csc(C(C)(C)C)n2)CC1` | 13.42 | 7.602 |
| `[H][C@@]12CCN(C(=O)NC)CC[C@]1(C(=O)Nc1ccccc1)CCN2C` | -11.76 | 5.417 |
| `CN(Cc1ccco1)C1CCC12CCN(C(=O)c1ccco1)CC2.O=C(O)C(F)(F)F` (stereo not drawn) | - | 6.064 |
| `O=C(NCc1ccccc1CN1CCC(O)CC1)Nc1ccncc1` | - | -15.21 |
| `CC(=O)N1CCCC1c1cccc(C)c1C` (stereo not drawn) | -1.065 | -4.922 |
| `COc1ccc(NC(C)C(=O)NCCc2cccs2)cc1F` (stereo not drawn) | -8.31 | 18.52 |
| `NC(c1ccc(F)cc1)c1cccs1` (stereo not drawn) | -3.853 | 37.92 |
| `Cc1cnn(CCNCc2nnc(C3CC3)o2)c1` | -12.52 | 8.608 |
| `c1cc(-c2nc3c(c(NCCc4c[nH]cn4)n2)CCNCC3)ccn1` | -23.76 | -32.96 |
| `CCN(CC)S(=O)(=O)CC(=O)N1CCc2ccc(C)cc21` | 12.98 | -5.929 |
| `COc1cccc(C(=O)N2CCc3c(nc(N)[nH]c3=O)C2)c1C` | 10.07 | 0.2667 |
| `CC(C)N(CC(N)=O)Cc1csc(C(C)(C)C)n1` | - | -6.907 |
| `COCCS(=O)(=O)NC(=O)c1nnn(-c2ccc(F)cc2)c1C1CC1` | -5.688 | -21.04 |
| `Cc1nc(CN2CC[C@@H](OCC3CC3)[C@@H]2Cc2cccnc2)cs1.O=C(O)C(F)(F)F.O=C(O)C(F)(F)F` | - | -22.45 |
| `Nc1nc(CCCNC(=O)c2ccc(C3CCCNC3)cc2)cs1` (stereo not drawn) | 6.037 | -10.03 |
| `O=C(O)C(F)(F)F.O=C(c1ccoc1)N1CC[C@@H](N2CCOCC2)[C@@H]1Cc1ccccc1` | 19.78 | -25.18 |
| `CCc1nc2n(n1)CC(NCc1nc(Cc3ccccc3)no1)CC2` (stereo not drawn) | -18.94 | -25.33 |
| `CS(=O)(=O)N1CC2(CCN(C(=O)c3csnn3)CC2)c2ccccc21` | 22.73 | -3.092 |
| `[H][C@]12CC[C@]([H])(CN(Cc3ccccc3C#N)C1)N(CC(=O)N(C)C)C2=O` | 15.93 | 9.5 |
| `O=C(C1CCCC1)N1CCC2(CC1)COCCN2CC1CC1.O=C(O)C(F)(F)F` | -22.95 | -36.33 |
| `[H][C@@]12CN(C(=O)c3cc(C)oc3C)C[C@]1([H])[C@H]2CN(C)CCCn1cccn1` | 36.67 | -1.525 |
| `CCNC(=O)NC(=O)CNC(C)(C)c1ccc2c(c1)OCCO2` | 27.43 | 11.57 |
| `Cc1nn(C)c(C)c1C1CCCN1C(=O)c1cc[nH]n1` (stereo not drawn) | - | 11.21 |
| `CS(=O)(=O)N1CCC(c2cnc(-c3cn[nH]c3)cn2)CC1` | 4.722 | 19.36 |
| `Cc1cccn2c(CNC(C)CCc3ccc(O)cc3)cnc12` (stereo not drawn) | 4.286 | 6.056 |
| `CCc1c(C)sc2nc3n(CCN(C)C)nc(SC)n3c(=O)c12` | 19.85 | 0.235 |
| `CCN(CC1CCOC1)C(=O)Nc1ccc(N2CCOCC2)nc1` (stereo not drawn) | - | -7.898 |
| `CCn1c(CN2CCN(CCO)CC2)nc2c(F)cccc21` | - | -32.56 |
| `C=C(C)COc1cccc(C(=O)N2CCC3(CCOCC3)CC2)c1` | 0.2608 | 5.06 |
| `O=C1NCCN2CCN(C(=O)Nc3ccc(-c4ccccc4)cc3)CC12` (stereo not drawn) | 8.231 | -3.132 |
| `CS(=O)(=O)N1Cc2nccn2CC(CN2CCCC2)C1` (stereo not drawn) | -13.6 | -10.72 |
| `CNC(=O)c1ccc(C2CN(C(=O)c3coc(C)n3)CCO2)nc1` (stereo not drawn) | -47.4 | 4.048 |
| `O=S1(=O)NC(c2ccnc(N3CCCCC3)n2)=Nc2ccccc21` | -20.58 | -0.4842 |
| `Cc1cc(NC(=O)CNC2CCCN(c3cccnn3)C2)on1` (stereo not drawn) | 22.51 | -7.691 |
| `NC(=O)c1cnc(NC2CCN(c3ccccc3)CC2)c(Cl)c1` | 48.08 | 12.2 |
| `[H][C@@]12CN(S(=O)(=O)N(C)C)C[C@]1([H])N(Cc1ccccc1OC)C(=O)O2` | -22.13 | -1.929 |
| `Cc1nc(C(C)(C)NCc2ncc(C3CC3)o2)sc1C` | -26.65 | -3.062 |
| `COCCc1nc(-c2cnn3c(C)cc(C)nc23)no1` | 4.499 | -13.92 |

The first 3 entries again:

| compound | Mtb growth Cornell | Mtb heat-shock |
|---|---|---|
| `Cc1nc(C)n(C2CCCN(C(=O)CCCc3ccccn3)C2)n1` (stereo not drawn) | -1.27 | -8.184 |
| `CN(C)C(CNCc1nc(-c2ccsc2)no1)c1cccc(F)c1` (stereo not drawn) | - | 16.72 |
| `Cc1cc(CN(C)C(=O)CN2CCCC2=O)no1` | 8.375 | 1.585 |

Data taken from ChEMBL document CHEMBL3988442, “University of Dundee, Small-Polar-MMV Screening Library” (2021).